# Measured values as given in the supplement of paper PMC10338343.
# ± gives the standard deviation. The entries are a selection whose mix differs from that of the whole data set. Many of these values have a large error. The list shows a part of the results.
# Key:
# [1] = tested on: MILI (PIWIL2) piRISC loaded with L1MC piRNA (26 nt); test: pre-steady-state target cleavage rate (min^-1); higher = faster piRNA-guided slicing of the target; conditions: guide: L1MC piRNA 5'p-UAACUAAAUACUAUGCAAGCUGUAGG
# Procedure, shortened: (§1)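 The pre-steady-state cleavage rate was calculated from a burst-and-steady-state fit. Data came from Cleave-'n-Seq, in which […] transcribed, DNA-blocked target RNA library was mixed with 1 nM active affinity-purified piRISC carrying one synthetic guide, with or without 500 nM GTSF1 partner protein, in HEPES–potassium acetate buffer at 33 °C for 0–8 or 0–960 min. Uncleaved targets were sequenced and normalised to depth and to weakly complementary targets, three trials were pooled, and k3 was capped at 0.0001 min^-1.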
# [2] = tested on: MIWI (PIWIL1) piRISC loaded with L1MC piRNA (30 nt); test: as above; conditions: guide: L1MC piRNA 5'p-UAACUAAAUACUAUGCAAGCUGUAGGUCCU
# Procedure, shortened: as §1
# [3] = tested on: EfPiwi piRISC loaded with L1MC piRNA (26 nt); test: pre-steady-state target cleavage rate (min^-1); guide: L1MC piRNA 5'p-UAACUAAAUACUAUGCAAGCUGUAGG; MIWI and MILI are mouse PIWI proteins and EfPiwi is from a freshwater sponge; tags in brackets are library labels; higher = faster piRNA-guided slicing of the target
# Procedure, shortened: as §1
# [4] = auxiliary factor: none (no GTSF1)
# [5] = auxiliary factor: 500 nM mouse GTSF1
# [6] = auxiliary factor: 500 nM Ephydatia muelleri Gtsf1
Sequence,"pre-steady-state target cleavage rate [1, 4]","pre-steady-state target cleavage rate [2, 5]","pre-steady-state target cleavage rate [2, 4]","pre-steady-state target cleavage rate [3, 6]","pre-steady-state target cleavage rate [1, 5]",pre-steady-state target cleavage rate ([3]; auxiliary factor: none (no Gtsf1))
UCCUGGAUCAGCUUGCAUAGUAUAUAGUAA,0.00237 ± 0.0033,0.458 ± 0.054,0.0134 ± 0.0052,0.00291 ± 0.0023,,
UCCUGGAUCAGCUUCGUUAGUAUUUACAAA,0.000569 ± 0.013,0.000833 ± 0.012,0.000888 ± 0.0076,0.000359 ± 0.0093,,
UCCUGGUACACGAUGCAUAGUAUUUUCAAA,0.00208 ± 0.0049,0.00195 ± 0.0069,0.00153 ± 0.0072,0.000415 ± 0.0093,,
UCCUGGAUGUCGUUGCAUAGUAUUUAUUA,0.000398 ± 0.015,0.000316 ± 0.034,0.000715 ± 0.0089,0.000442 ± 0.0081,,
UCCUGGAUCAGCUUGCAGUAGUAUUUAGUUA,0.000531 ± 0.013,0.00343 ± 0.0037,0.0011 ± 0.0067,0.00203 ± 0.0056,,
UCCUGGAACAGCUUGCAUAUGUAUUUAGUUA,0.00139 ± 0.0042,0.00369 ± 0.0037,0.00108 ± 0.0054,0.00127 ± 0.003,,
UCCUGGAUGUCGAACCAUAGUAUUUAGUUUA,0.000214 ± 0.0093,0.00079 ± 0.0092,0.000461 ± 0.009,0.0006 ± 0.012,,
UCCUGCAUACAGCUUGCAUAGUAUUUAGUUA,,1.63 ± 0.12,0.0686 ± 0.013,0.11 ± 0.032,0.554 ± 0.047,
UCCUGGAUCACGAUGCAUAGUAUUUAGAAA,0.0017 ± 0.0043,0.00266 ± 0.0053,0.00207 ± 0.0041,0.0021 ± 0.0039,,
UCCUGGAUGUCCUUGCAUAGUUUUUAGAUA,0.0011 ± 0.0057,0.00294 ± 0.004,0.00116 ± 0.0065,0.00217 ± 0.0042,,
UCCUGGAUGUCCUUGCAAUAGUAUUUAGUUA,0.00216 ± 0.0029,0.00199 ± 0.0056,0.00159 ± 0.0052,0.00168 ± 0.0048,,
UCCUGGAUGUGCUUCCAUAGUAUUUACUUA,0.000539 ± 0.011,0.00445 ± 0.0044,0.000702 ± 0.011,0.00153 ± 0.0059,,
UCCUGGAUGUCGAUGCAUAGUAUUUAGCUA,0.000397 ± 0.014,0.00198 ± 0.0053,0.000579 ± 0.011,0.000478 ± 0.0078,,
UCCUGGAUCAGCAUGCAUAGUAUUUAGAUA,0.0028 ± 0.0029,0.375 ± 0.034,0.00494 ± 0.0022,0.0044 ± 0.0024,,
UCCUGGUACAGCUUCGUUAGUAUUUUCAAA,0.0013 ± 0.0065,0.00107 ± 0.01,0.000897 ± 0.0066,0.000189 ± 0.037,,
UCCUGGUACAGCUUGGAUAGUAUUUACAAA,0.00149 ± 0.0056,0.00354 ± 0.0047,0.00117 ± 0.004,0.00114 ± 0.0035,,

# Some of the entries so far, bar-delimited:
Sequence | pre-steady-state target cleavage rate [1, 4] | pre-steady-state target cleavage rate [2, 5] | pre-steady-state target cleavage rate [2, 4] | pre-steady-state target cleavage rate [3, 6] | pre-steady-state target cleavage rate [1, 5] | pre-steady-state target cleavage rate ([3]; auxiliary factor: none (no Gtsf1))
UCCUGGAUCAGCUUGCAUAGUAUAUAGUAA | 0.00237 ± 0.0033 | 0.458 ± 0.054 | 0.0134 ± 0.0052 | 0.00291 ± 0.0023 |  | 
UCCUGGAUCAGCUUCGUUAGUAUUUACAAA | 0.000569 ± 0.013 | 0.000833 ± 0.012 | 0.000888 ± 0.0076 | 0.000359 ± 0.0093 |  | 
UCCUGGUACACGAUGCAUAGUAUUUUCAAA | 0.00208 ± 0.0049 | 0.00195 ± 0.0069 | 0.00153 ± 0.0072 | 0.000415 ± 0.0093 |  | 
UCCUGGAUCAGCUUGCAGUAGUAUUUAGUUA | 0.000531 ± 0.013 | 0.00343 ± 0.0037 | 0.0011 ± 0.0067 | 0.00203 ± 0.0056 |  | 
UCCUGGAUGUCGAUGCAUAGUAUUUAGCUA | 0.000397 ± 0.014 | 0.00198 ± 0.0053 | 0.000579 ± 0.011 | 0.000478 ± 0.0078 |  | 
UCCUGGAUCAGCAUGCAUAGUAUUUAGAUA | 0.0028 ± 0.0029 | 0.375 ± 0.034 | 0.00494 ± 0.0022 | 0.0044 ± 0.0024 |  | 

# (next part)

Sequence,"pre-steady-state target cleavage rate [1, 4]","pre-steady-state target cleavage rate [2, 5]","pre-steady-state target cleavage rate [2, 4]","pre-steady-state target cleavage rate [3, 6]","pre-steady-state target cleavage rate [1, 5]",pre-steady-state target cleavage rate ([3]; auxiliary factor: none (no Gtsf1))
UCCUGGAACAGCUUGCUAUGUAUUUAGUAA,0.00121 ± 0.0047,0.0313 ± 0.0087,0.00333 ± 0.002,0.000314 ± 0.0087,,
UCCUGCACAGCUUGCAUAGUAUUUAGUUA,,1.34 ± 0.073,0.0804 ± 0.018,0.0745 ± 0.016,0.317 ± 0.018,
UCCUGCUACAGCUUGCAUAUAUUUAGUUA,0.00226 ± 0.0027,0.408 ± 0.045,0.00397 ± 0.0033,,,0.000892 ± 0.0081
UCCUGGAUGUCGAACCAUAGUAUUUACGUUA,0.000207 ± 0.027,0.000432 ± 0.013,0.000175 ± 0.036,< 0.0001,,
UCCUGGAACAGCUUGCAUUCUAUUUACAAA,0.000549 ± 0.0083,0.00386 ± 0.0046,0.000277 ± 0.01,0.000551 ± 0.0066,,
UCCUGGAUGUCGUUCCAUACUAUUUAGUUA,0.000382 ± 0.013,0.0033 ± 0.0053,0.000512 ± 0.012,0.000211 ± 0.016,,
UCCUCGAACAGCUUGCAUAGUAUUUAGUUA,,1.39 ± 0.039,0.0825 ± 0.015,0.198 ± 0.038,0.3 ± 0.017,
UCCUGGAUGUCCAACCAUAGUAUUUAGUAA,< 0.0001,0.00235 ± 0.0047,0.000198 ± 0.022,0.000292 ± 0.011,,
UCCUGGAUGACGUUGCAUAGUAUUUAGAAA,0.000729 ± 0.0079,0.00202 ± 0.0052,0.000464 ± 0.0057,0.00198 ± 0.0046,,
UCCUGGAUGUCCUUCCAUAGUAUUUAGUUA,0.00155 ± 0.0037,0.00347 ± 0.0042,0.000585 ± 0.011,0.001 ± 0.0033,,
UCCUGGAUCAGGUUCCAUAGUAUUUAGUUA,0.000437 ± 0.0096,0.00405 ± 0.0044,0.000556 ± 0.011,0.000735 ± 0.0043,,
UCCUGGAUGUCGUUGCUUAGUAUUUUGUUA,,0.000157 ± 0.028,,0.000281 ± 0.012,,
UCCUGGAUGUGCUUGCAUAGUAUUAGUUA,0.00152 ± 0.0041,0.002 ± 0.0064,0.00217 ± 0.0034,0.0016 ± 0.0037,,
UCCUGGAUGUGGAAGCAUAGUAUUUAGUAA,,0.0029 ± 0.0037,,0.00225 ± 0.0054,,
UCCUGGAUGUCGUAGCAUAGUAUUAAGUUA,,,0.000539 ± 0.0097,0.000901 ± 0.0053,,
